Data: paper PMC11042535
These are yes or no findings as the source states them, for the method shown. For some of these results: Binding seen in cells or lysates may run through a third protein. Some results given as binding are weak or reduced against the parent protein; the word gives no strength. Values belong to the substance of their own block, whether it stands above or below them.

Sequences of proteins named here, by UniProt entry; tags and fusion partners are left off.
UniProt P52630: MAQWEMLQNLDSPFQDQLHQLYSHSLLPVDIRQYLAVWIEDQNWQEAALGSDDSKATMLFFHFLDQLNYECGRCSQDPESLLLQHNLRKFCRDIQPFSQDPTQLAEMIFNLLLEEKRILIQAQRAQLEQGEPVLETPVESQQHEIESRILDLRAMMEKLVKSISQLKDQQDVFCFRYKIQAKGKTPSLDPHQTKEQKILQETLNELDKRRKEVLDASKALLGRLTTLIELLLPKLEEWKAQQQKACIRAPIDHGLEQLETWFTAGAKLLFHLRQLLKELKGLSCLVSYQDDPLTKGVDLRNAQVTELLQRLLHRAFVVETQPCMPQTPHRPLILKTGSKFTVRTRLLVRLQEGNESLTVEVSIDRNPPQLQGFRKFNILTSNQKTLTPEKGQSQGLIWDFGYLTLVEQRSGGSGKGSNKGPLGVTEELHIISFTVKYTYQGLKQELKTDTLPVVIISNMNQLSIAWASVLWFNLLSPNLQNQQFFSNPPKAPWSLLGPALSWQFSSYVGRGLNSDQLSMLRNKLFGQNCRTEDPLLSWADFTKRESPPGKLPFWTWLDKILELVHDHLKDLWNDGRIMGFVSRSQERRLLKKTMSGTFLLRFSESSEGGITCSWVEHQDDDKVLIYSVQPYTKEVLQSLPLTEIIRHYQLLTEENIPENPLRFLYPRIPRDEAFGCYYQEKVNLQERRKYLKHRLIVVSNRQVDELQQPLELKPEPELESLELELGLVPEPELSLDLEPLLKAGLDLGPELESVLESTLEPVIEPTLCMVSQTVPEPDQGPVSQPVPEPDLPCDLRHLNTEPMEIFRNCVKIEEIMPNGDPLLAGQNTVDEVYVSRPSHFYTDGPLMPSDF

Assays:
[1] = target: T1, nuclear factor kappa B subunit 2 (NFKB2) (not stated (human cell lines HT29 and HEK-293T)) (UniProt Q00653); test: co-IP; IP with deletion mapping: Flag-STAT2 deletions with NFKB2, and NFKB2 deletion constructs with STAT2, in HEK-293T cells
T1 sequence: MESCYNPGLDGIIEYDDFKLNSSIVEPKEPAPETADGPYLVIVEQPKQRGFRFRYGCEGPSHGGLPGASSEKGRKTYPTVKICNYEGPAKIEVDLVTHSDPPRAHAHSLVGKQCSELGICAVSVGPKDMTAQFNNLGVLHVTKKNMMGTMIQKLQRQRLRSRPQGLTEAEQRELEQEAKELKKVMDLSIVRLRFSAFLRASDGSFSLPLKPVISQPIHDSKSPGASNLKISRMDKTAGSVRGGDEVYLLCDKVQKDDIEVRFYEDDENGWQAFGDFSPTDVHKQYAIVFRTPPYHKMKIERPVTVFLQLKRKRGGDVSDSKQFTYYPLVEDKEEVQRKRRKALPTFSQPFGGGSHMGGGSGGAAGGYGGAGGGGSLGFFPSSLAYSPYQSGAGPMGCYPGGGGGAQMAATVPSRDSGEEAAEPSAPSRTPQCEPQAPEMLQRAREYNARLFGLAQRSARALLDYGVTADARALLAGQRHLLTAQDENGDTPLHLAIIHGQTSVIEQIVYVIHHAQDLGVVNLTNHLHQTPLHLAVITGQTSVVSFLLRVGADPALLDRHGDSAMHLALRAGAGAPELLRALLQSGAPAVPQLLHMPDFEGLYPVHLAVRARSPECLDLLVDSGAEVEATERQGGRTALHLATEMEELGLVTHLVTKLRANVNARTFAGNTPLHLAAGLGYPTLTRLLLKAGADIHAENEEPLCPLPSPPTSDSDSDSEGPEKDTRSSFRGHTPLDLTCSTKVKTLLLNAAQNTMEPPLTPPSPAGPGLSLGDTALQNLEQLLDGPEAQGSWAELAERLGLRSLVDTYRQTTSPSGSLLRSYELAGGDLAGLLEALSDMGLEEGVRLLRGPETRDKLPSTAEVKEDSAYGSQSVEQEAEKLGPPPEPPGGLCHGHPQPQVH

[2] = target: T1, nuclear factor kappa B subunit 2 (NFKB2) (not stated (human cell lines HT29 and HEK-293T)); test: co-IP; IP in HEK-293T and MC38 cells overexpressing or knocked out for NFKB2; phosphorylated and total STAT2 compared
[3] = target: T1, nuclear factor kappa B subunit 2 (NFKB2) (not stated (human cell lines HT29 and HEK-293T)); test: Re-ChIP; two rounds of ChIP at the -171 and -458 sites of the PD-L1 promoter in HEK-293T-vector and HEK-293T-NFKB2-OE (or STAT2) cells
[4] = target: T1, nuclear factor kappa B subunit 2 (NFKB2) (not stated (human cell lines HT29 and HEK-293T)); test: co-IP; immunoprecipitation assay in HT29 and HEK-293T cells

binding [1]: binds
Substance: Flag-STAT2 full-length protein (from UniProt P52630 1-851)

binding [2]: binds
Substance: phosphorylated form of STAT2 (from UniProt P52630 1-851)

binding [3]: binds
binding [4]: binds
Substance: signal transducer and activator of transcription 2 (STAT2) (from UniProt P52630 1-851)
